Test results taken from PubChem BioAssay AID493201 (National Center for Advancing Translational Sciences (NCATS), 2011).
The inconclusive results got no clear call from the source; some entries with a clear call stand among them for comparison. Where the call is inconclusive, the potency comes from a doubtful curve fit. The source made the active and inactive calls. Calls follow the shape of the dose curve; as a rule, active = well fitted activation curve with a large enough effect; inconclusive = small, poorly fitted or top-dose-only effect; inactive = no such curve, though single readings can be large or run the other way.

Assay: qHTS Assay for Identifying a Potential Treatment of Ataxia-Telangiectasia: Secondary assay (no NCS) hit validation;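 also: phosphorylated KAP1 signal as a proxy for ATM-like kinase activity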
Settings: A-T patient fibroblasts, AlphaLISA, no DNA damage added, 90 min; series mostly up to 76.9 µM
From the text: NIH Chemical Genomics Center [NCGC]
NIH Molecular Libraries Probe Centers Network [MLPCN]
Assay Submitter (PI): Wei Zheng and Yosef Shiloh
Ataxia-telangiectasia (A-T) is a devastating and progressive disease for which, there is no cure. Although A-T is a multisystem disease, it is stereotyped characterized by its neurological symptoms such as truncal ataxia, due to cerebellar cortical degeneration of the Purkinje and granule cells. Other symptoms of A-T are telangiectasias (dilated blood vessels), primary immunodeficiency, marked sensitivity to ionizing radiation (IR), chromosomal instability and predisposition to cancer.
The underlying genetic cause of A-T is null mutations in the ATM (A-T mutated) gene. ATM is a nuclear serine/threonine kinase that functions as a master regulator of the cellular responses to double strand breaks (DSBs) in the DNA. Upon activation by DSBs, ATM phosphorylates a plethora of downstream targets, including KAP-1 on […]. KAP-1 phosphorylation occurs shortly in response to DSBs and mediates global chromatin relaxation, which facilitates DSB repair. To screen for small molecules that will compensate for the loss of ATM in cells derived from A-T patients, we monitored KAP-1 phosphorylation as a readout for ATM-like activity using an AlphaLISA assay. This secondary assay omits NCS, which creates double-stranded DNA breaks.
Step,Parameter,Value,Description
1. Cell Plating, 3 ul, 500 cells/well in OPTI-MEM, 1% FBS, 1% Pen/Strep
3. Library compounds, 23 nl, 76.7 - 0.61uM dilution series final concentration
4. Incubation, 60 min, 37C, 5% CO2, 95% humidity
6. Incubation, 30 min, 37C, 5% CO2, 95% humidity
7. Reagent, 1 ul, Premixed detection reagents and lysis buffer
8. Reagent, 1 ul, 0.6% Antifoam A
9. Incubation, 6 hr, 25C, 95% humidity
10. Readout, EnVision, EnVision plate reader. AlphaScreen 1536-well protocol
Cells were plated using medium-binding white solid-bottom tissue culture treated Kalypsys plates. Multidrop dispense of 3 uL of […] (hTERT immortalized A-T patient fibroblast cells). Detection reagent and lysis buffer was 3.75nM Rab-a-pKAP1 antibody bound to 75 ng/ul AlphaScreen SA donor bead, 3.75 nM Biot-M-a-KAP1 antibody bound to AlphaLISA protein A acceptor bead, 0.5x protease inhibitor cocktail and 0.25x PerkinElmer lysis buffer. EnVision protocol for 1536-well AlphaScreen read (30ms excitation, 100ms read), about 10 min/plate.
Potency is read from the fitted curve at half-maximal effect.

SMILES	Potency
CCOC(=O)c1[nH]c(COC(=O)c2ccccc2NC(=O)c2ccco2)c(C(=O)OCC)c1C	inactive
Cc1nn(CC(=O)N(C)Cc2ccc(F)cc2)c(C)c1[N+](=O)[O-]	inconclusive: 0.0328 µM [activator, full curve, poor fit]
CSc1nc2ccccc2nc1N(C)S(=O)(=O)c1ccc(C)cc1	active: 36.8 µM
CCOC(=O)c1ccccc1NC(=O)c1ccc2nc[nH]c2c1	inconclusive: 6.54 µM [activator, full curve]
O=C1NC(=Nc2ccccc2)CS1	inconclusive: 29.2 µM [activator, partial curve]
C=CCC(CC)C(=O)NC(=O)N1CCCc2ccccc21 (stereo not given)	inconclusive: 14.6 µM [activator, partial curve, poor fit]
Cn1cnc([N+](=O)[O-])c1SCCO	inconclusive: 0.26 µM [activator, full curve, poor fit]
COc1ccccc1C1CCN(C(=O)c2ccc(Cl)cc2)CC1	inconclusive: 26 µM [activator, partial curve, poor fit]
COc1ccc(OC)c(C2CC(c3ccccc3)=NN2C(=S)Nc2ccccc2)c1 (stereo not given)	inconclusive: 0.368 µM [activator, full curve, poor fit]
CNC(=O)c1ccc(-c2sc3nc(N4CCOCC4)c4c(c3c2N)CC(C)(C)OC4)o1	active: 29.2 µM
Cc1ccc(OCC(=O)N(Cc2cccs2)C2CCS(=O)(=O)C2)cc1C (stereo not given)	inconclusive: 20.7 µM [activator, partial curve, poor fit]
Oc1ccc(-c2nccc(-c3ccc(F)cc3)n2)cc1	active: 5.82 µM
C=CS(=O)(=O)c1sc(Cl)c(N2CCOCC2)c1[N+](=O)[O-]	inactive
CCOc1ccccc1CNC(=O)Cn1c(=O)oc2ccccc21	active: 32.8 µM
COc1cccc(CNCc2ccc(OC)c3ccccc23)c1OC	inactive
CCOc1ccc(C(=O)NC(=S)Nc2cccnc2)cc1[N+](=O)[O-]	inactive
O=C1C(Cl)=C(Nc2ccccc2)C(=O)c2ccccc21	inconclusive: 36.8 µM [activator, single point]
CCC(Oc1ccccc1)C(=O)N(C)CC(=O)N(CC(C)C)c1c(N)n(CC(C)C)c(=O)[nH]c1=O (stereo not given)	inconclusive: 0.0368 µM [activator, full curve, poor fit]
C[C@@H]1Cc2c(O)c(O)cc(O)c2C(=O)O1	inconclusive: 0.292 µM [activator, full curve, poor fit]
O=C(CCC(=O)c1ccc(F)cc1)Nc1cccc(Br)c1	inactive

Three entries from above in a different format.

| SMILES | Potency |
| --- | --- |
| Oc1ccc(-c2nccc(-c3ccc(F)cc3)n2)cc1 | active: 5.82 µM |
| C=CS(=O)(=O)c1sc(Cl)c(N2CCOCC2)c1[N+](=O)[O-] | inactive |
| CCOc1ccccc1CNC(=O)Cn1c(=O)oc2ccccc21 | active: 32.8 µM |

(continued)

SMILES	Potency
Cc1cccc(NC(=O)/C(C#N)=C/c2ccc(F)cc2)n1	active: 1.84 µM
OC(COC(c1ccc(F)cc1)c1ccc(F)cc1)CN1CCCC1 (stereo not given)	inconclusive: 11.6 µM [activator, full curve, poor fit]
CCOC(=O)c1cccc(N2C(=O)C3C4C=CC(CC4)C3C2=O)c1 (stereo not given)	inconclusive: 0.0733 µM [activator, full curve, poor fit]
CC1=NN(C(C#N)c2ccc([N+](=O)[O-])cc2)C(C)(C)C1 (stereo not given)	inconclusive: 0.164 µM [activator, full curve, poor fit]
CC1(C)CC2(CCO1)OC(=O)CC2C(=O)Nc1c(Cl)cccc1Cl (stereo not given)	inactive
Cc1ccccc1OCC(=O)Nc1cccc(C(=O)O)c1	inconclusive: 0.0923 µM [activator, full curve, poor fit]
CCN(CC)S(=O)(=O)c1ccc(Cl)c(NC(=O)CCCCl)c1	inactive
Cc1oc2ccc(OCc3ccc(Br)cc3)cc2c1C(=O)O	inconclusive: 0.0463 µM [activator, full curve, poor fit]
Cc1nc2sc(C(N)=O)c(N)c2c2c1CCCC2	inconclusive: 36.8 µM [activator, partial curve, poor fit]
Cc1nn(-c2ccccc2)c2nc(C(Cl)(Cl)Cl)[nH]c(=O)c12	inactive
Cc1[nH]c2c(C)cccc2c1CN1CCC(CO)(Cc2ccccc2)CC1	active: 1.84 µM
CC1CCCC(C)N1C(=O)COC(=O)Cc1ccc(Cl)cc1 (stereo not given)	inconclusive: 0.0292 µM [activator, full curve, poor fit]
O=C(O)c1ccc(C2Nc3ccccc3C(=O)N2Cc2ccccc2)cc1 (stereo not given)	inconclusive: 0.0463 µM [activator, full curve, poor fit]
Cn1cc(S(=O)(=O)Nc2ccc(OC(F)(F)F)cc2)c(=O)n(C)c1=O	inconclusive: 4.12 µM [activator, full curve]
COc1cc(/C=N/NC(=O)c2c(C)nc3ccc(Cl)cn23)cc(OC)c1OC	active: 3.68 µM
COc1cccc(CN2CCN(Cc3cc(OC)c(OC)cc3OC)CC2)c1	inconclusive: 36.8 µM [activator, partial curve, poor fit]
CCCCCCCCCn1ccc(=N)cc1	inactive
COc1cc(C(=O)NCCC(=O)NCCCN2CCCCC2)cc(OC)c1OC	inconclusive: 32.8 µM [activator, partial curve, poor fit]
Nc1nc2ccccc2cc1-c1cccs1	inactive
COc1cccc(CNC(=O)C(CC(C)C)NC(=O)c2ccccc2C)c1 (stereo not given)	inconclusive: 18.4 µM [activator, partial curve, poor fit]
